Measured values as given in patent US20020155500A1 (CURIS, published 2002).
These are yes or no findings as the source states them, for the method shown. Some entries that bind do so weakly or less than the wild type.

Sequences of proteins named here, by UniProt entry; tags and fusion partners are left off. A change or cut given only in a name is not applied to a line headed by its entry.
UniProt P36898: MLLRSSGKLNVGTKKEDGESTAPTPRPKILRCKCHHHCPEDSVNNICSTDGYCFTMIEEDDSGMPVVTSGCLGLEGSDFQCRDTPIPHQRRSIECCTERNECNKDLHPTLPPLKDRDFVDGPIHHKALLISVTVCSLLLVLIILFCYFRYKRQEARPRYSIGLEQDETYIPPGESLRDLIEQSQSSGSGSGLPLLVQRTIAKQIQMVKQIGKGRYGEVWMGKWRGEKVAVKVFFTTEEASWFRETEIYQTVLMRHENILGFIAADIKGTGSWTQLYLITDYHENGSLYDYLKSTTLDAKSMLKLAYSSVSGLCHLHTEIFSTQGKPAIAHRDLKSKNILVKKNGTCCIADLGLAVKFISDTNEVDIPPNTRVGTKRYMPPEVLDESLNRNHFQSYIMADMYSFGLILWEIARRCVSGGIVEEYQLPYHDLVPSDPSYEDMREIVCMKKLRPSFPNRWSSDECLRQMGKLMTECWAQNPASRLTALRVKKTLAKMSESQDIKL

Legend:
[1] = molecular target: ALK-6 (transfected cDNA, on cells) (Mus musculus (Mouse)) (UniProt P36898); assay: affinity cross-linking on transfected COS-1 cells, without and with daf-4
[2] = molecular target: ALK-6 (transfected cDNA, on cells) (Mus musculus (Mouse)) (UniProt P36898); assay: affinity cross-linking of ^125I-BMP4 to COS-1 cells transfected with ALK6 cDNA without daf-4; immunoprecipitation with ALK antiserum, autoradiography (qualitative grade)
[3] = molecular target: ALK-6 (transfected cDNA, on cells) (Mus musculus (Mouse)) (UniProt P36898); assay: affinity cross-linking of ^125I-BMP4 to COS-1 cells transfected with ALK6 and daf-4 cDNA; immunoprecipitation with ALK antiserum, autoradiography (qualitative grade)

Measured: binding

B1: BMP-4 (ligand, UniProt P12644 293-408, looked up)
chain: SPKHHSQRARKKNKNCRRHSLYVDFSDVGWNDWIVAPPGYQAFYCHGDCPFPLADHLNSTNHAIVQTLVNSVNSSIPKACCVPTELSAISMLYLDEYDKVVLKNYQEMVVEGCGCR
modifications: ^125I label (radioiodinated, residue not stated)
binds: [1] | [2] | [3]
